{"source": "patent US5665861A", "about": "(HaemoPep Pharma GmbH, priority 1987, dated 1997)", "assay": "Boc solid-phase peptide synthesis; Merrifield", "conditions": "whole synthesis, scale of the general procedure 1.22 g of resin", "note": "Strings that start with PEPTIDE1 are HELM notation: dots part the residues, brackets hold end groups and non-standard residues."}
{"substance": "PEPTIDE1{T.A.P.R.S.L.R.R.S.S.C.F.G.G.R.M.D.R.I.G.A.Q.S.G.L.G.C.N.S.F.R.Y}$PEPTIDE1,PEPTIDE1,11:R3-27:R3$$$V2.0", "values": [{"measurement": "final purity (method not given)", "value": "more than 98%"}]}
